# Single values of this data set are uncertain.
# B1: human tRNA-Pro; a variant is named by its letters at N, in order (parent)
# chain: GGCTCGTTGGTCTAGNGGTATGATTCTCGCTTAGGGTGCGAGAGGTCCCGGGTTCNNATCCCGGACGAGCCC
# How the values were obtained:
# [1] = variants of: B1; experiment: tRNA Pol-III promoter activity, log2 (circRNA frequency / plasmid DNA frequency) (log2 ratio); higher = stronger promoter activity; conditions: HEK293T; construct: no Pol-II promoter ((-)CMV library)
# [2] = variants of: B1; experiment: tRNA 3' processing efficiency (processed reads / all reads, maximum-likelihood estimate) (fraction); higher = more efficient 3' processing; conditions: HEK293T; construct: no Pol-II promoter ((-)CMV library)
# [3] = variants of: B1; experiment: tRNA 5' processing efficiency (processed reads / all reads, maximum-likelihood estimate) (fraction); higher = more efficient 5' processing; conditions: HEK293T; construct: CMV Pol-II promoter ((+)CMV library, decapped)
Variant,tRNA Pol-III promoter activity (log2) [1],tRNA 3' processing efficiency [2],tRNA 5' processing efficiency [3]
GGCTCGTCGGTCTAGGGGTATGATTCTCGCTTAGGGTGCGAGAGGTCCCGGGATCATATCCCGGACGAGCCC,4.8,0.71,
GGCTCGTCGGTCTGGGGGTATGATTCTCGCTTAGGGTGCGAGAGGTCCCGGGTTCATACCCCGGACGAGCCC,4.93,0.25,
GGCTCGTCGGTCTAGGGGGATGATTCTCGCTTAGGGTGCGAGAGGTCCCGGGTTCATATCCCGGACGAGCCC,3.55,0.2,
GGCTCGTTGGTCTAGGGTTATGATTCTCGCTTAGGGTGCGAGAGGTCCCGGGTTCATATCCCGGACGAGCCC,0.0387,0.15,
GGCTCGTTGGTCTAGTGCTATGATTCTCGCTTAGGGTGCGAGAGGTCCCGGGTTCATATCCCGGACGAGCCC,1.76,0.25,
GGCTCGTCGGTCTAGGGGTATGATTCTCGCTTAGGGTGCGAGAGGTCCCGGGTTCATCTCCCGGACGAGCCC,3.52,0.43,
GGCTCGTTGGTCTAGGGGTATGATTCTCGCTTAGGGTGCGAGAGGTCCCAGGTTCATATCCCGGACGAGCCC,4.26,0.2,
GGCTCGTTGGTCTAGAGTTATGATTCTCGCTTAGGGTGCGAGAGGTCCCGGGTTCATATCCCGGACGAGCCC,2.36,0.43,
GGCTCGTGGGTCTAGGGATATGATTCTCGCTTAGGGTGCGAGAGGTCCCGGGTTCATATCCCGGACGAGCCC,3.4,0.67,
GGCTCGTCGGTCTAGAGGTATGATTCTCGCTTAGGGTGCGAGAGGTCCCGGGTTCATATCCCGGACGAGCCC,2.53,0.25,
GGCTCGTAGGTCTAGAGGTATGATTCTCGCTTAGGGTGCGAGAGGTCCCGGGTTCATATCCCGGACGAGCCC,3.09,0.4,
GGCTCGTTGGTCTAGTGTTATGATTCTCGCTTAGGGTGCGAGAGGTCCCGGGTTCATAGCCCGGACGAGCCC,6.26,0.4,
GGCTCGTGGGTCTAGAAGTCTGATTCTCGCTTAGGGTGCGAGAGGTCCCGGGTGCATACCCCGGACGAGCCC,5.2,0.67,
GGCTCGTCAGTCTAGGGGTATGATTCTCGCTTAGGGTGCGAGAGGTCCCGGGTTCATATCCCGGACGAGCCC,5.94,0.25,
GGCTCGTTGGTCTAGGGGTATGATTCTCGCTTAGGGTGCGAGAGATCCCGGGTTCATATCCCGGACGAGCCC,7.4,0.09,
GGCTCGTTGGTCTAGGGACATGATTCTCGCTTAGGGTGCGAGAGGTCCCGGGTTCATATCCCGGACGAGCCC,2.79,0.4,
GGCTCGTTGGTCTAGGGAGATGATTCTCGCTTAGGGTGCGAGAGGTCCCGGGTTCATATCCCGGACGAGCCC,4.88,0.56,
GGCTCGTCGGTCTCGGGGTATGATTCTCGCTTAGGGTGCGAGAGGTCCCGGGTTCATATCCCGGACGAGCCC,4.67,0.33,

Variant,tRNA Pol-III promoter activity (log2) [1],tRNA 3' processing efficiency [2],tRNA 5' processing efficiency [3]
GGCTCGTCGGTCTGGGGGTATGATTCTCGCTTAGGGTGCGAGAGGTCCCGGGTTCATATCCCGGACGAGCCC,2.66,0.4,
GGCTCGTCGGTCTAGCGGTATGATTCTCGCTTAGGGTGCGAGAGGTCCCGGGTTCATATCCCGGACGAGCCC,5.26,0.58,
GGCTCGTAGGTCTACGGGTATGATTCTCGCTTAGGGTGCGAGAGGTCCCGGGTTCATATCCCGGACGAGCCC,3.34,0.17,
GGCTCGTAGGTCTAAGGGTATGATTCTCGCTTAGGGTGCGAGAGGTCCCGGGTTCATATCCCGGACGAGCCC,3.57,0.29,
GGCTCGTGGGTCTATGGGTCTGATTCTCGCTTAGGGTGCGAGAGGTCCCGGGTTCATATCCCGGACGAGCCC,4.93,0.25,
GGCTCGTCGGTCTAGTGGTATGATTCTCGCTTAGGGTGCGAGAGGTCCCGGGTTCATATCCCGGACGAGCCC,1.94,0.25,0.25
GGCTCGTCGGTCTAGGGGTATGATTCTCGCTTAGGGTGCGAGAGGTCCCGGGTTCATAACCCGGACGAGCCC,3.08,0.4,
GGCTCGTCGGTCTAGGGGTATGATTCTCGCTTAGGGTGCGAGAGGTCCCGGGTTCATAGCCCGGACGAGCCC,2.02,0.25,
GGCTCGTCGGTCTAGGCGTATGATTCTCGCTTAGGGTGCGAGAGGTCCCGGGTTCATATCCCGGACGAGCCC,2.93,0.2,
GGCTCGTTGGTCTAGGGATATGATTCTCGCTTAGGGTGCGAGAGGTCCCGGGTTCATTTCCCGGACGAGCCC,3.53,0.22,
GGCTCGTGGGTCTAGGAGTATGATTCTCGCTTAGGGTGCGAGAGGTCCCGGGTTCATCTCCCGGACGAGCCC,5.26,0.29,
GGCTCGTGGGTCTAGGGGTATGATTCTCGCTTAGGGTGCGAGAGGTCCCGGGTTCATATCCCGGACGAGCCC,-0.233,0.33,0.2
GGCTCGTAGGTCTAGGGGTATGATTCTCGCTTAGGGTGCGAGAGGTCCCGGGTTCATATCCCGGACGAGCCC,-0.102,0.33,
GGCTCGTCGGTCTAGGGGTATGATTCTCGCTTAGGGTGCGAGAGGTCCCGGGTTCATATCCCGGACGAGCCC,3.17,0.35,0.13
GGCTCGTCGGTCTAGGGGAATGATTCTCGCTTAGGGTGCGAGAGGTCCCGGGTTCATAACCCGGACGAGCCC,5.03,0.25,
GGCTCGTGGGTCTACGTGTATGATTCTCGCTTAGGGTGCGAGAGGTCCCGGGTTCATATCCCGGACGAGCCC,5.26,0.4,
GGCTCGTCGGTCTAGGGGTTTGATTCTCGCTTAGGGTGCGAGAGGTCCCGGGTTCATATCCCGGACGAGCCC,2.58,0.33,
GGCTCGTCGGTCTAGGGGTGTGATTCTCGCTTAGGGTGCGAGAGGTCCCGGGTTCATATCCCGGACGAGCCC,3.36,0.5,0.2

# Given as tab-separated lines: part of the list above.
Variant	tRNA Pol-III promoter activity (log2) [1]	tRNA 3' processing efficiency [2]	tRNA 5' processing efficiency [3]
GGCTCGTCGGTCTAGCGGTATGATTCTCGCTTAGGGTGCGAGAGGTCCCGGGTTCATATCCCGGACGAGCCC	5.26	0.58	
GGCTCGTTGGTCTAGGGATATGATTCTCGCTTAGGGTGCGAGAGGTCCCGGGTTCATTTCCCGGACGAGCCC	3.53	0.22	
GGCTCGTGGGTCTAGGAGTATGATTCTCGCTTAGGGTGCGAGAGGTCCCGGGTTCATCTCCCGGACGAGCCC	5.26	0.29	
GGCTCGTGGGTCTAGGGGTATGATTCTCGCTTAGGGTGCGAGAGGTCCCGGGTTCATATCCCGGACGAGCCC	-0.233	0.33	0.2
GGCTCGTCGGTCTAGGGGTATGATTCTCGCTTAGGGTGCGAGAGGTCCCGGGTTCATATCCCGGACGAGCCC	3.17	0.35	0.13
GGCTCGTGGGTCTACGTGTATGATTCTCGCTTAGGGTGCGAGAGGTCCCGGGTTCATATCCCGGACGAGCCC	5.26	0.4	
GGCTCGTCGGTCTAGGGGTTTGATTCTCGCTTAGGGTGCGAGAGGTCCCGGGTTCATATCCCGGACGAGCCC	2.58	0.33	
